PubChem BioAssay AID1259405 – NCATS, 2018
Shown is a random part of about 50,000 reagents. In the full data, about 4,000 (8%) were called active. 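Mouse siRNA library applied to hamster cells; one well for each siRNA.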 The numbers tell different reagents against one gene apart.

Test: 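Silenced genes that increase secreted GFP made by CHO cells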 (primary screen)
System: Chinese hamster CHO-K1 ovary cells with stable secreted eGFP expression
Knock-down reagent: single siRNA against mouse genes, 0.8 pmol siRNA per well (2 µl of 400 nM stock)
Duration: 3 days
Measured: 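Percent of the per-plate non-targeting control median for intracellular GFP per well by laser scanning cytometry and for cell viability by ATP luminescence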
Scale: GFP, % of control: higher = more GFP per well, higher productivity; viability (ATP), % of control: higher = more viable cells (more ATP)
Rule for the call: 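Called active when intracellular GFP, relative to negative control, is at or above 120%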

no.	Gene	siRNA no.	GFP, % of control	viability (ATP), % of control	outcome
1	Kif13a	1	53.8	57.5	inactive
2	Kif13a	2	96.8	76.4	inactive
3	Dusp26	1	56.6	80	inactive
4	Dusp26	2	96.2	106	inactive
5	Pmel	1	64.8	60.4	inactive
6	Pmel	2	117	88.1	inactive
7	Pmel	3	82.5	73.7	inactive
8	Ubd	1	33.2	45.2	inactive
9	Ubd	2	70.8	50.2	inactive
10	Ubd	3	70.4	49	inactive
11	Sez6l2	1	36.3	45.6	inactive
12	Sez6l2	2	147	88.1	active
13	Sez6l2	3	41.8	58.4	inactive
14	Uso1	1	65.9	59.8	inactive
15	Uso1	2	117	84.5	inactive
16	Uso1	3	50.1	62.6	inactive
17	4930556L07Rik	1	85.2	89.3	inactive
18	4930556L07Rik	2	95	82.8	inactive
19	4930556L07Rik	3	58.6	70.7	inactive
20	Dusp19	1	77.1	59.4	inactive
21	Dusp19	2	102	48	inactive
22	Dusp19	3	100	87.5	inactive
23	Or4c118	1	67	65.6	inactive
24	Or4c118	2	69.2	59.8	inactive
25	Or4c118	3	53.6	80.2	inactive
26	Atp1a2	1	66.8	72.6	inactive
27	Atp1a2	2	97.5	85.5	inactive
28	Atp1a2	3	63.4	47	inactive
29	M1ap	1	62.3	84.4	inactive
30	M1ap	2	0	332	inactive
31	M1ap	3	88.1	69.8	inactive
32	Adam8	1	176	98.3	active
33	Adam8	2	78.1	93.8	inactive
34	Adam8	3	78.5	86.7	inactive
35	Mrpl52	1	79.2	78.4	inactive
36	Mrpl52	2	129	99	active
37	Mrpl52	3	112	71.1	inactive

Continued (12 carried over from the part before).
no.	Gene	siRNA no.	GFP, % of control	viability (ATP), % of control	outcome
26	Atp1a2	1	66.8	72.6	inactive
27	Atp1a2	2	97.5	85.5	inactive
28	Atp1a2	3	63.4	47	inactive
29	M1ap	1	62.3	84.4	inactive
30	M1ap	2	0	332	inactive
31	M1ap	3	88.1	69.8	inactive
32	Adam8	1	176	98.3	active
33	Adam8	2	78.1	93.8	inactive
34	Adam8	3	78.5	86.7	inactive
35	Mrpl52	1	79.2	78.4	inactive
36	Mrpl52	2	129	99	active
37	Mrpl52	3	112	71.1	inactive
38	Zdhhc3	1	74.4	124	inactive
39	Zdhhc3	2	100	81.2	inactive
40	Zdhhc3	3	32.6	15.7	inactive
41	Slc25a21	1	136	102	active
42	Slc25a21	2	96.1	92	inactive
43	Slc25a21	3	75.3	92.3	inactive
44	Sem1	1	121	90.4	active
45	Sem1	2	79	73.7	inactive
46	Sem1	3	54.3	65.8	inactive
47	Gemin2	1	68.5	78.2	inactive
48	Gemin2	2	83	83.7	inactive
49	Gemin2	3	68.6	70.2	inactive
50	Elof1	1	100	84.2	inactive
51	Elof1	2	69.9	75.2	inactive
52	Elof1	3	77.2	46.2	inactive
53	Pithd1	1	58.2	60.1	inactive
54	Pithd1	2	56.2	56.7	inactive
55	Pithd1	3	86.7	111	inactive
56	Vav2	1	103	119	inactive
57	Vav2	2	82.2	68.6	inactive
58	Vav2	3	87.9	59.8	inactive
59	Zyx	1	35.5	17.7	inactive
60	Zyx	2	61.8	56.5	inactive
61	Zyx	3	94.7	91.2	inactive
62	Mob4	1	84.5	81.6	inactive
63	Mob4	2	106	98	inactive
64	2810025M15Rik	1	58.9	34	inactive
65	2810025M15Rik	2	94.2	92.9	inactive
66	2810025M15Rik	3	73.7	58.7	inactive
67	Ube2j2	1	103	102	inactive
68	Ube2j2	2	66.4	68.7	inactive
69	Ube2j2	3	72	75.9	inactive
70	Prg3	1	52.7	61.2	inactive
71	Prg3	2	87.5	96.5	inactive
72	Prg3	3	88.4	83	inactive
73	Nme6	1	87.3	78.8	inactive
74	Cck	1	33.2	39	inactive
75	Cck	2	47.8	36.8	inactive
76	Cck	3	64.2	68.8	inactive
77	Smyd4	1	85.8	112	inactive
78	Smyd4	2	61.6	60.9	inactive
79	Smyd4	3	68.6	93.7	inactive
80	Dram2	1	77.5	96	inactive
81	Dram2	2	108	68.6	inactive
82	Dram2	3	87.5	62.7	inactive
83	Tmem179b	1	112	47.7	inactive
84	Tmem179b	2	83.4	43.4	inactive
85	Tmem179b	3	67.9	83.9	inactive
